For some of these results: For expression read-outs the peptide stands for its source gene, whose mRNA was measured; the gene is not named for every peptide.
Columns and labels:
Set-up in all cases: species or system human
[1] = system: source genes of selected peptides; assay: Expression profiling of source genes by in-house RNAseq, tumor vs normal tissues (target coverage); conditions: for Target coverage, over-expression of source gene, AML: AML (N = 7), over-expression = more than 1.5-fold higher expression on tumor vs highest-expressing relevant normal tissue; for Target coverage, over-expression of source gene, AML / Target coverage, over-expression of source gene, BRCA / Target coverage, over-expression of source gene, CLL / Target coverage, over-expression of source gene, CRC / Target coverage, over-expression of source gene, GB / Target coverage, over-expression of source gene, HCC / Target coverage, over-expression of source gene, OC / Target coverage, over-expression of source gene, OSCAR / Target coverage, over-expression of source gene, PC / Target coverage, over-expression of source gene, RCC / Target coverage, over-expression of source gene, SCLC / Target coverage, over-expression of source gene, pNSCLC: in-house RNASeq; for Target coverage, over-expression of source gene, BRCA: BRCA (N = 10); for Target coverage, over-expression of source gene, BRCA / Target coverage, over-expression of source gene, CLL / Target coverage, over-expression of source gene, CRC / Target coverage, over-expression of source gene, GB / Target coverage, over-expression of source gene, HCC / Target coverage, over-expression of source gene, OC / Target coverage, over-expression of source gene, OSCAR / Target coverage, over-expression of source gene, PC / Target coverage, over-expression of source gene, RCC / Target coverage, over-expression of source gene, SCLC / Target coverage, over-expression of source gene, pNSCLC: over-expression = more than 1.5-fold vs highest normal tissue; for Target coverage, over-expression of source gene, CLL: CLL (N = 10); for Target coverage, over-expression of source gene, CRC: CRC (N = 20); for Target coverage, over-expression of source gene, GB: GB (N = 24); for Target coverage, over-expression of source gene, HCC: HCC (N = 15); for Target coverage, over-expression of source gene, OC: OC (N = 12); for Target coverage, over-expression of source gene, OSCAR: OSCAR (N = 11); for Target coverage, over-expression of source gene, PC: PC (N = 26); for Target coverage, over-expression of source gene, RCC: RCC (N = 10); for Target coverage, over-expression of source gene, SCLC: SCLC (N = 10); for Target coverage for source genes of selected peptides, GC (N = 11): gastric cancer; for Target coverage for source genes of selected peptides, HNSCC (N = 10): head and neck small cell carcinoma; for Target coverage for source genes of selected peptides, MEL (N = 10): melanoma; for Target coverage for source genes of selected peptides, NHL (N = 10): non-Hodgkin lymphoma; for Target coverage, over-expression of source gene, pNSCLC: pNSCLC (N = 11); for Target coverage for source genes of selected peptides, PCA (n = 10): prostate cancer and benign prostate hyperplasia; for Target coverage for source genes of selected peptides, UBC (N = 10): urinary bladder cancer; for Target coverage for source genes of selected peptides, UTC (N = 10): uterine cancer
[2] = system: source genes of selected peptides; assay: Target coverage of source genes in tumor entities based on TCGA Research Network data; conditions: over-expressed = more than 2-fold above the highest 75% percentile of normal organs; for Target coverage, over-expression category of source gene, BLCA (N = 408): Bladder urothelial carcinoma; for Target coverage, over-expression category of source gene, CESC (N = 307): Cervical squamous cell carcinoma and endocervical adenocarcinoma; for Target coverage, over-expression category of source gene, HNSC (N = 521): Head and neck squamous cell carcinoma; for Target coverage, over-expression category of source gene, DLBC (N = 48): Lymphoid neoplasm diffuse large B-cell lymphoma; for Target coverage, over-expression category of source gene, MESO (N = 87): Mesothelioma
[3] = system: HLA-A*24 molecules of primary tumors; assay: Identification and relative LC-MS quantitation of HLA-A*24 tumor-associated peptides presented on tissue samples (XPRESIDENT presentation profiles); conditions: for Peptide Presentation on cancer entities: Table 9B: selected HLA-A*24 peptides, presentation on additional cancer entities
[4] = share of tumors with more than 1.5-fold higher expression than the highest-expressing relevant normal tissue, in-house RNAseq

162: peptide found in IFNG (gene looked up) (KYTSYILAF; listed as Homo sapiens) [compound 162]
Target coverage, over-expression of source gene, AML [1]: I (<19% over-expression = I)
Target coverage, over-expression of source gene, BRCA [1]: I (<19% over-expression = I)
Target coverage, over-expression of source gene, CLL [1]: I (<19% over-expression = I)
Target coverage, over-expression of source gene, CRC [1]: I (<19% over-expression = I)
Target coverage, over-expression of source gene, GB [1]: I (<19% over-expression = I)
Target coverage, over-expression of source gene, HCC [1]: I (<19% over-expression = I)
Target coverage, over-expression of source gene, OC [1]: II (20-49% = II)
Target coverage, over-expression of source gene, OSCAR [1]: I (<19% over-expression = I)
Target coverage, over-expression of source gene, PC [1]: I (<19% over-expression = I)
Target coverage, over-expression of source gene, RCC [1]: II (20-49% = II)
Target coverage, over-expression of source gene, SCLC [1]: I (<19% over-expression = I)
Target coverage for source genes of selected peptides, GC (N = 11) [1, 4]: I (<19% over-expression = I)
Target coverage for source genes of selected peptides, HNSCC (N = 10) [1, 4]: I (<19% over-expression = I)
Target coverage for source genes of selected peptides, MEL (N = 10) [1, 4]: I (<19% over-expression = I)
Target coverage for source genes of selected peptides, NHL (N = 10) [1, 4]: II (20-49% = II)
Target coverage, over-expression of source gene, pNSCLC [1]: I (<19% over-expression = I)
Target coverage for source genes of selected peptides, PCA (n = 10) [1, 4]: I (<19% over-expression = I)
Target coverage for source genes of selected peptides, UBC (N = 10) [1, 4]: I (<19% over-expression = I)
Target coverage for source genes of selected peptides, UTC (N = 10) [1, 4]: I (<19% over-expression = I)
Target coverage, over-expression category of source gene, BLCA (N = 408) [2]: C (>=5% of tumors above the cutoff, but <20%)
Target coverage, over-expression category of source gene, CESC (N = 307) [2]: B (>=20% of tumors above the cutoff, but <50%)
Target coverage, over-expression category of source gene, HNSC (N = 521) [2]: C (>=5% of tumors above the cutoff, but <20%)
Target coverage, over-expression category of source gene, DLBC (N = 48) [2]: A (>=50% of tumors above the cutoff)
Target coverage, over-expression category of source gene, MESO (N = 87) [2]: C (>=5% of tumors above the cutoff, but <20%)
ENTITIES ([3]; Table 9A: selected HLA-A*24-binding tumor-associated peptides, cancer entities on which the peptide was found presented): NSCLC, GC, PCA, HCC

164: peptide found in IL4I1 (gene looked up) (HYVPATKVF; listed as Homo sapiens) [compound 164]
Target coverage, over-expression of source gene, AML [1]: I (<19% over-expression = I)
Target coverage, over-expression of source gene, BRCA [1]: II (20-49% = II)
Target coverage, over-expression of source gene, CLL [1]: I (<19% over-expression = I)
Target coverage, over-expression of source gene, CRC [1]: I (<19% over-expression = I)
Target coverage, over-expression of source gene, GB [1]: I (<19% over-expression = I)
Target coverage, over-expression of source gene, HCC [1]: I (<19% over-expression = I)
Target coverage, over-expression of source gene, OC [1]: IV (>70% = IV)
Target coverage, over-expression of source gene, OSCAR [1]: III (50-69% = III)
Target coverage, over-expression of source gene, PC [1]: I (<19% over-expression = I)
Target coverage, over-expression of source gene, RCC [1]: II (20-49% = II)
Target coverage, over-expression of source gene, SCLC [1]: II (20-49% = II)
Target coverage, over-expression of source gene, pNSCLC [1]: IV (>70% = IV)
Target coverage, over-expression category of source gene, BLCA (N = 408) [2]: B (>=20% of tumors above the cutoff, but <50%)
Target coverage, over-expression category of source gene, CESC (N = 307) [2]: B (>=20% of tumors above the cutoff, but <50%)
Target coverage, over-expression category of source gene, CHOL (N = 36) ([2]; Cholangiocarcinoma): C (>=5% of tumors above the cutoff, but <20%)
Target coverage, over-expression category of source gene, HNSC (N = 521) [2]: B (>=20% of tumors above the cutoff, but <50%)
Target coverage, over-expression category of source gene, KIRP (N = 291) ([2]; Kidney renal papillary cell carcinoma): B (>=20% of tumors above the cutoff, but <50%)
Target coverage, over-expression category of source gene, DLBC (N = 48) [2]: A (>=50% of tumors above the cutoff)
Target coverage, over-expression category of source gene, MESO (N = 87) [2]: B (>=20% of tumors above the cutoff, but <50%)
Peptide Presentation on cancer entities [3]: NSCLC

172: peptide found in MMP10 (gene looked up) (VFIFKGNEF; listed as Homo sapiens) [compound 172]
Target coverage, over-expression of source gene, AML [1]: I (<19% over-expression = I)
Target coverage, over-expression of source gene, BRCA [1]: I (<19% over-expression = I)
Target coverage, over-expression of source gene, CLL [1]: I (<19% over-expression = I)
Target coverage, over-expression of source gene, CRC [1]: I (<19% over-expression = I)
Target coverage, over-expression of source gene, GB [1]: I (<19% over-expression = I)
Target coverage, over-expression of source gene, HCC [1]: I (<19% over-expression = I)
Target coverage, over-expression of source gene, OC [1]: I (<19% over-expression = I)
Target coverage, over-expression of source gene, OSCAR [1]: II (20-49% = II)
Target coverage, over-expression of source gene, PC [1]: I (<19% over-expression = I)
Target coverage, over-expression of source gene, RCC [1]: I (<19% over-expression = I)
Target coverage, over-expression of source gene, SCLC [1]: I (<19% over-expression = I)
Target coverage for source genes of selected peptides, GBC_CCC (N = 10) ([1]; gallbladder adenocarcinoma and cholangiocarcinoma, share of tumors with more than 1.5-fold higher expression than the highest-expressing relevant normal tissue, in-house RNAseq): I (<19% over-expression = I)
Target coverage for source genes of selected peptides, GC (N = 11) [1, 4]: I (<19% over-expression = I)
Target coverage for source genes of selected peptides, HNSCC (N = 10) [1, 4]: I (<19% over-expression = I)
Target coverage for source genes of selected peptides, MEL (N = 10) [1, 4]: I (<19% over-expression = I)
Target coverage for source genes of selected peptides, NHL (N = 10) [1, 4]: I (<19% over-expression = I)
Target coverage, over-expression of source gene, pNSCLC [1]: II (20-49% = II)
Target coverage for source genes of selected peptides, PCA (n = 10) [1, 4]: I (<19% over-expression = I)
Target coverage for source genes of selected peptides, UBC (N = 10) [1, 4]: I (<19% over-expression = I)
Target coverage for source genes of selected peptides, UTC (N = 10) [1, 4]: I (<19% over-expression = I)
Target coverage, over-expression category of source gene, BLCA (N = 408) [2]: C (>=5% of tumors above the cutoff, but <20%)
Target coverage, over-expression category of source gene, CESC (N = 307) [2]: B (>=20% of tumors above the cutoff, but <50%)
Target coverage, over-expression category of source gene, HNSC (N = 521) [2]: A (>=50% of tumors above the cutoff)
Peptide Presentation on cancer entities [3]: NSCLC

173: peptide found in MMP10 (gene looked up) (QYLEKYYNL; listed as Homo sapiens) [compound 173]
Target coverage, over-expression of source gene, AML [1]: I (<19% over-expression = I)
Target coverage, over-expression of source gene, BRCA [1]: I (<19% over-expression = I)
Target coverage, over-expression of source gene, CLL [1]: I (<19% over-expression = I)
Target coverage, over-expression of source gene, CRC [1]: I (<19% over-expression = I)
Target coverage, over-expression of source gene, GB [1]: I (<19% over-expression = I)
Target coverage, over-expression of source gene, HCC [1]: I (<19% over-expression = I)
Target coverage, over-expression of source gene, OC [1]: I (<19% over-expression = I)
Target coverage, over-expression of source gene, OSCAR [1]: II (20-49% = II)
Target coverage, over-expression of source gene, PC [1]: I (<19% over-expression = I)
Target coverage, over-expression of source gene, RCC [1]: I (<19% over-expression = I)
Target coverage, over-expression of source gene, SCLC [1]: I (<19% over-expression = I)
Target coverage, over-expression of source gene, pNSCLC [1]: II (20-49% = II)
Target coverage, over-expression category of source gene, BLCA (N = 408) [2]: C (>=5% of tumors above the cutoff, but <20%)
Target coverage, over-expression category of source gene, CESC (N = 307) [2]: B (>=20% of tumors above the cutoff, but <50%)
Target coverage, over-expression category of source gene, HNSC (N = 521) [2]: A (>=50% of tumors above the cutoff)
Peptide Presentation on cancer entities [3]: NSCLC

Reference: patent US10159726B2, “Peptides, combination of peptides and scaffolds for use in immunotherapeutic treatment of various cancers” (Immatics Biotechnologies GmbH, priority 2015, dated 2018)
